{
  "sequences": {"note": "Amino acid sequences for entries named in this document (tags omitted). Residues count along the entry.", "UniProt P02701, 25-152": "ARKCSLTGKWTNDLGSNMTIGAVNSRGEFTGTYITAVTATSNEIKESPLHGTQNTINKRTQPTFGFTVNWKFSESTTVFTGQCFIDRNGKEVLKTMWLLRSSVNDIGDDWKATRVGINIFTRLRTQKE"},
  "source": "patent US20160258939",
  "biological_target": "Neutravidin (UniProt P02701)",
  "assay": "EMSA",
  "details": "PNA GAA*AGT*GAA*AGT, biotin at gamma position via Lys at each *; binding via biotin on PNA; neutravidin-dependent retardation; also nanopore 200 mV; purified native protein; protein details: Pierce/Thermo Scientific",
  "note": "The exact form of at least one protein or probe is not confirmed.",
  "data": [
    {"sequence": "GAAAGTGAAAGT", "values": [
      {"measurement": "binding result", "result": "binds"}
    ]}
  ]
}
